According to article PMC6877618:
These are yes or no findings as the source states them, for the method shown. Binding seen in cells or lysates may run through a third protein. Some binding calls cover weakened binding; strength is not graded here.

The chains behind the UniProt entries cited, without tags or fusion partners.
UniProt P06748: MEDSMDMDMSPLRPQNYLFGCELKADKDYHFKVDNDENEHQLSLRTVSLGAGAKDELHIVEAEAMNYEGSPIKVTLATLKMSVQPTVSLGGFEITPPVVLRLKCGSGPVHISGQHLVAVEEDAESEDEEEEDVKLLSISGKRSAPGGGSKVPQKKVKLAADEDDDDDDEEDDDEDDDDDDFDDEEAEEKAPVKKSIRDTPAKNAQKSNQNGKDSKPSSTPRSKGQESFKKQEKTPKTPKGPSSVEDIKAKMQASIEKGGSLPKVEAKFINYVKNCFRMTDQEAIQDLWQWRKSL

T1: ErbB3-binding protein 1 (EBP1) (human (endogenous in OCI-AML3)) (UniProt Q9UQ80)
T1 sequence: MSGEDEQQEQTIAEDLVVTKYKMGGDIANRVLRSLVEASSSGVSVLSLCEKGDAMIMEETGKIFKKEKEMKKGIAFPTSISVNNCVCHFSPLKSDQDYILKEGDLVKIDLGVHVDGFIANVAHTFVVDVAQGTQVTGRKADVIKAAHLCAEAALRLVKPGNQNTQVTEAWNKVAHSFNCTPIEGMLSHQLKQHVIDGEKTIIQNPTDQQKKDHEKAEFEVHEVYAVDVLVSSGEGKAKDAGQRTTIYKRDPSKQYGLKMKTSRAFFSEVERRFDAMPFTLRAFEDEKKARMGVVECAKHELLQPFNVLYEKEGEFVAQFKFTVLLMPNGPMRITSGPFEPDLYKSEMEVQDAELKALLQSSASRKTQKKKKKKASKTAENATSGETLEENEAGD


Columns and labels:
[1] = target: T1, ErbB3-binding protein 1 (EBP1) (human (endogenous in OCI-AML3)); assay: co-IP; nuclear lysates of OCI-AML3 cells; antibodies (anti-EBP1 or anti-NPM1) cross-linked to magnetic A/G beads with dimethyl pimelimidate, incubated overnight at 4 °C; western blot for EBP1 and NPM1; also done in cells treated with scramble or anti-HOXB-AS3 gapmers (HOXB-AS3 KD decreased the interacting amounts); similar experiments with a mutant NPM1-specific antibody
[2] = target: NPM1 protein (human (endogenous in OCI-AML3)) (UniProt P06748); assay: as above

| binding [1] | binding [2] | Molecule |
| --- | --- | --- |
| binds | – | NPM1 protein (from UniProt P06748 1-294) |
| – | binds | ErbB3-binding protein 1 (EBP1) (protein, UniProt Q9UQ80 1-394) MSGEDEQQEQTIAEDLVVTKYKMGGDIANRVLRSLVEASSSGVSVLSLCEKGDAMIMEETGKIFKKEKEMKKGIAFPTSISVNNCVCHFSPLKSDQDYILKEGDLVKIDLGVHVDGFIANVAHTFVVDVAQGTQVTGRKADVIKAAHLCAEAALRLVKPGNQNTQVTEAWNKVAHSFNCTPIEGMLSHQLKQHVIDGEKTIIQNPTDQQKKDHEKAEFEVHEVYAVDVLVSSGEGKAKDAGQRTTIYKRDPSKQYGLKMKTSRAFFSEVERRFDAMPFTLRAFEDEKKARMGVVECAKHELLQPFNVLYEKEGEFVAQFKFTVLLMPNGPMRITSGPFEPDLYKSEMEVQDAELKALLQSSASRKTQKKKKKKASKTAENATSGETLEENEAGD |
